# Data: PubChem BioAssay AID485314 (National Center for Advancing Translational Sciences (NCATS), 2010)
# “And” between values parts separate entries of the source, which are not always exact repeats. Equal entries are not always repeated. The campaign covered roughly 340,000 compounds. About 4,500 (1.3%) were called active. The inconclusive results got no clear call from the source; some entries with a clear call stand among them for comparison. Calls follow the shape of the dose curve; as a rule, active = well fitted inhibition curve with a large enough effect; inconclusive = small, poorly fitted or top-dose-only effect, or another doubt; inactive = no such curve, though single readings can be large or run the other way. Potencies of inconclusive entries are doubtful fits and often do not repeat.
# Target: DNA polymerase beta (Homo sapiens) (UniProt P06746)
# Assay: qHTS Assay for Inhibitors of DNA Polymerase Beta
# Settings: Pol beta primer extension/strand displacement, fluorescence kinetic; activity change, negative = inhibition: at 114 µM (top of the series)
# Summary of the method: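 Human Pol beta at 10 nM; strand-displacement substrate 50 nM final. Compound exposure 15 min at room temperature before start, reaction 10 min at room temperature.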
# % is scaled to controls: 0 for no effect and ±100 for the full control effect; potency is read from the fitted curve at half-maximal effect.
SMILES,Potency,"activity change, negative = inhibition"
CCCn1c(C(C)Nc2nc(-c3cc(Cl)c(N)c(Cl)c3)cs2)nc2cc(Cl)c(N3CCCCC3)cc21 (stereo not drawn),"inconclusive: 10 µM [inhibitor, full curve, poor fit]",
COc1cc(/C=N/NC(=O)c2cccnc2)ccc1OC(=O)c1ccc([N+](=O)[O-])cc1,"inconclusive: 20 µM [inhibitor, full curve]",
CC(NC(=O)COc1ccc(/C=N/NC(=O)C(=O)Nc2ccccc2Br)cc1)c1ccccc1 (stereo not drawn),active: 31.6 µM,
O=C1CCCC(O)=C1N=Nc1ccc2c(c1)OCO2,inactive,
Cc1ccc2cc3cc(C(=O)N4CCN(C(=O)c5ccco5)CC4)sc3nc2c1,"inconclusive: 20 µM [inhibitor, single point]",
CC(C)(C)C1CCC(=NNC(=O)C(=O)NCc2ccco2)CC1 (stereo not drawn),"inconclusive: 63.1 µM [inhibitor, single point]",
COC(=O)c1scc(S(C)(=O)=O)c1-n1cccc1,inactive,
Cc1occc1-c1nnc(SCC(=O)c2cc3ccccc3oc2=O)o1,"inconclusive: 89.1 µM [inhibitor, single point]",
COc1ccc(-c2cc(C(F)(F)F)n3nc(C(=O)NCc4ccco4)cc3n2)cc1OC,"inconclusive: 89.1 µM [inhibitor, single point]",
CC(C)=CC(=O)Nc1nc2ccc([N+](=O)[O-])cc2s1,"inconclusive: 50.1 µM [inhibitor, partial curve, poor fit]",
CCCN1C(=O)C(NC(=O)c2ccccc2OC)(C(F)(F)F)C(C(=O)OC)=C1C (stereo not drawn),inactive,
Cc1ccc(C)c(NC(=O)CSc2cn(CC(=O)N3CCCC3)c3ccccc23)c1,inactive,
Cc1ccc(S(=O)(=O)C2(C(=O)Nc3ccc4c(c3)OCO4)CC2)cc1,"inconclusive: 100 µM [inhibitor, single point]",
Cc1cccc(NC(=O)CN2C(=O)CCSc3ccc(S(=O)(=O)N4CCOCC4)cc32)c1C,"inconclusive: 89.1 µM [inhibitor, single point]",
Cc1ccc(NC(=O)Cn2cc(C=O)c3ccccc32)cc1C,"inconclusive: 28.2 µM [inhibitor, full curve]",
COc1cc(/C=C/c2nc(C#N)c(NC3CCCCC3)o2)cc(OC)c1OC,inactive,
COc1ccc(-n2ccnc(NCCc3ccc(S(N)(=O)=O)cc3)c2=O)cc1,inactive,
O=C1CC(N2CCC(c3nc4ccccc4o3)CC2)C(=O)N1 (stereo not drawn),inactive,
Cc1ccc(-c2csc(C3=C(O)CN(NC(=O)c4ccc([N+](=O)[O-])cc4)C3=N)n2)cc1,"inconclusive: 0.501 µM [inhibitor, full curve]",
O=C(CCCn1c(=O)c2cccn2c2cccnc21)NCCc1ccc(Cl)cc1,"inconclusive: 56.2 µM [inhibitor, single point]",
CCN(CC)c1ccc(NC(=O)c2cc(CN3CCCC3)on2)c(C)c1,"inconclusive: 70.8 µM [inhibitor, single point]",
Cc1ccc(NC2=NC(C(=O)Nc3ccc(C)c(C)c3)CC(=O)N2)cc1 (stereo not drawn),"inconclusive: 89.1 µM [inhibitor, single point]",
CCNC(=O)CCSc1nnc(-c2ccc(O)cc2)o1,"inconclusive: 89.1 µM [inhibitor, partial curve, poor fit]",

# Of the compounds above, these contain a thiophene ring, fused or not:
SMILES,Potency,"activity change, negative = inhibition"
Cc1ccc2cc3cc(C(=O)N4CCN(C(=O)c5ccco5)CC4)sc3nc2c1,"inconclusive: 20 µM [inhibitor, single point]",
COC(=O)c1scc(S(C)(=O)=O)c1-n1cccc1,inactive,

# (list continues)

SMILES,Potency,"activity change, negative = inhibition"
O=C(Oc1ccc(Nc2ncnc3ccccc23)cc1)c1cccnc1,inactive,
CCN1C(=O)/C(=C\c2ccc(-c3ccc([N+](=O)[O-])cc3OC)o2)SC1=Nc1cccc(C(=O)O)c1,"inconclusive: 56.2 µM [inhibitor, partial curve, poor fit]",
CN1c2ccsc2C(O)=C(C(=S)Nc2ccc(F)c(Cl)c2)S1(=O)=O,"inconclusive: 100 µM [inhibitor, single point]",
CN=c1scc(C)n1/N=C/c1cc(Br)c(O)c(OC)c1,inactive,
CCc1cccc(C)c1Nc1c(-c2ccc(N(C)C)cc2)nc2ncccn12,inactive,
CCc1ccc(CNC(=O)Cc2ccc(NC(=O)C3=C(C)OCCS3)cc2)cc1,,inconclusive: -91.9% [inhibitor]
Cc1noc(NS(=O)(=O)c2ccc(N/C=C\C(=O)c3ccc(Br)cc3)cc2)c1C,"inconclusive: 89.1 µM [inhibitor, single point]",
Cc1cc(C)nc(N/N=C/c2ccccc2Cl)n1,"inconclusive: 79.4 µM [inhibitor, single point]",
O=C(CCCN1C(=O)/C(=C\c2cccs2)SC1=S)Nc1cccc(C(=O)O)c1,inactive,
Cc1ccc(CCNC(=O)c2sc3ncccc3c2-n2cccc2)cc1,inactive,
COc1cc(C2Nc3cccc4cccc(c34)N2)cc(OC)c1O,active: 44.7 µM,
COc1cccc(OCC(=O)NNC(=O)c2ccc3ccccc3c2O)c1,"inconclusive: 79.4 µM [inhibitor, single point]",
CSc1cccc(NC(=O)CNC(=O)C2CCCCC2)c1,"inconclusive: 3.98 µM [inhibitor, single point]",
C/C(=N\NC(=O)c1c(Cl)cnn1C)c1cccnc1,"inconclusive: 10 µM [inhibitor, partial curve]",
O=c1cc(-c2ccccc2Cl)oc2cc(O)cc(O)c12,"inconclusive: 39.8 µM [inhibitor, partial curve]",
CS(=O)(=O)NCCCc1ccccc1,"inconclusive: 5.01 µM [inhibitor, single point]",
COc1ccc(-c2[nH]ncc2/C=N\NS(=O)(=O)c2ccc(Cl)cc2)cc1,"inconclusive: 0.501 µM [inhibitor, full curve, poor fit]",
Cc1ccc(NC2=CC(=O)C(=O)c3ccccc32)cc1,"inconclusive: 7.94 µM [inhibitor, single point]",
Cc1ccc(NC(=O)CCNS(=O)(=O)c2ccc3[nH]c(=O)oc3c2)c(C)c1,,inconclusive: -34.5% [inhibitor]
CCn1c(C(=O)Nc2cc(C)cc(C)c2)cc2sc(Cl)cc21,"inconclusive: 25.1 µM [inhibitor, single point]",
CCOC(=O)CN(C)C(=O)CCc1nnc(-c2ccsc2)o1,"inconclusive: 100 µM [inhibitor, single point]",
CCOC(=O)CSc1nnc(C)c(=O)[nH]1,"inconclusive: 39.8 µM [inhibitor, single point]",
Cc1nc2cc3nc(C(F)(F)F)[nH]c3cc2[nH]1,"inconclusive: 28.2 µM [inhibitor, single point]",

# Looked up by structure from the entries so far, two records:
SMILES,Potency,"activity change, negative = inhibition"
CC(NC(=O)COc1ccc(/C=N/NC(=O)C(=O)Nc2ccccc2Br)cc1)c1ccccc1 (stereo not drawn),active: 31.6 µM,
Cc1ccc(NC(=O)Cn2cc(C=O)c3ccccc32)cc1C,"inconclusive: 28.2 µM [inhibitor, full curve]",

# Additional results follow.

SMILES,Potency,"activity change, negative = inhibition"
CC1=CN2C(=N)/C(=C/c3ccco3)C(=O)N=C2S1,"inconclusive: 10 µM [inhibitor, partial curve]",
CCOc1ccccc1NC(=O)C1CCCN(S(=O)(=O)c2ccc3c(c2)CCCN3C(C)=O)C1 (stereo not drawn),"inconclusive: 39.8 µM [inhibitor, single point]",
COCCCn1c(C(C)C)nc2oc3cc(OC)ccc3c(=O)c2c1=O,"inconclusive: 3.98 µM [inhibitor, partial curve]",
c1coc(-c2nn3c(-c4ccco4)nnc3s2)c1,active: 28.2 µM,
Cc1ccc(NC(=O)COc2nc(C)cs2)cc1,"inconclusive: 89.1 µM [inhibitor, partial curve, poor fit]",
O=C1CN(C(=O)COC(=O)/C=C/c2ccco2)c2ccccc2N1,"inconclusive: 56.2 µM [inhibitor, partial curve, poor fit]",
COc1cccc(-c2nn(-c3ccccc3)cc2/C=C\C(=O)c2cccs2)c1,"inconclusive: 5.01 µM [inhibitor, full curve]",
N#Cc1ccccc1NC(=O)C(=O)NCC(c1cccnc1)N1CCc2ccccc2C1 (stereo not drawn),inactive,
CCOc1ccc(NC(=O)NNC(=O)c2cc3ccccc3cc2O)cc1,"inconclusive: 11.2 µM [inhibitor, full curve]",
CCc1ccc2[nH]c3nc(SCC(=O)NNC(=O)c4ccc(C(C)(C)C)cc4)nnc3c2c1,"inconclusive: 0.794 µM [inhibitor, full curve, poor fit]",
COc1ccc(C(=O)NC2CC2)cc1OC1CCN(Cc2cnn(C)c2C)CC1,"inconclusive: 70.8 µM [inhibitor, single point]",
CCOC(=O)c1cc(-c2ccc3c(c2)OCCO3)nc2c1c(C)nn2CCC#N,"inconclusive: 79.4 µM [inhibitor, single point]",
CC1(CCc2ccccc2)NC(=O)N(Cc2nnc(-c3ccccc3Br)o2)C1=O (stereo not drawn),"inconclusive: 89.1 µM [inhibitor, single point]",
Cc1cc(C)cc(NC(=O)Cn2nnc(C(=O)NCc3ccco3)c2N)c1,"inconclusive: 7.08 µM [inhibitor, full curve] and inconclusive: 89.1 µM [inhibitor, single point]",
NC1=NC(=O)C(CC(=O)Nc2ccc3c(c2)OCO3)S1 (stereo not drawn),"inconclusive: 31.6 µM [inhibitor, partial curve]",
O=C(NC(=S)Nc1ccccc1Cl)c1ccco1,inactive,
CCOc1ccccc1CNC(=O)c1cccc(NC(=O)c2nsc3ccccc23)c1,inactive,
Cc1ccc(OCCOCCn2ccnc2)c(Br)c1,"inconclusive: 39.8 µM [inhibitor, single point]",
COc1ccc(NC(=O)CN2CCN(S(=O)(=O)c3ccc(Br)cc3)CC2)cc1,"inconclusive: 89.1 µM [inhibitor, single point]",
O=C(NCc1ccccn1)C1CCN(S(=O)(=O)c2cnc[nH]2)CC1,inactive,
CCCOc1ccc(C2C(=O)N(C3CCCCCC3)CC(=O)N2CCC2=CCCCC2)cc1OC (stereo not drawn),inactive,
CC1c2cc3c(cc2CCN1C(=O)c1cccc(F)c1)OCCCO3 (stereo not drawn),inactive,
